Test results reported in PubChem BioAssay AID328 (DTP/NCI, 2004).
The list shows only some results of the screen, not a fair sample: it is rich in T/C values a quarter to a half above the control, in often repeated tests (any T/C) and in doses without a T/C. Other doses and runs of a compound stand elsewhere. T/C gives the treated animals as a percentage of the vehicle group. Some doses have a count of surviving animals in place of a T/C: the source files T/C as zero there, which appears to mark a toxic dose or a test without result, not a measured value. Some survivor counts are full or nearly so, which does not show that the dose was tolerated: the source hardly ever lists a survival T/C far under the control, and the zero likely stands for such cases as well. Counts of survivors are from the toxicity check (mostly the fifth day) where no day follows; animals may have died later. Schedule codes are those of the source, taken here to give the interval after Q, in days (D) or hours (H), and the number of doses after X. For survival time, this PubChem deposit counts one and a half times the control or more as active, and values a quarter to a half above the control carry no call in these data; other NCI protocols may use other cut-offs.

Test system: BDF1 mice, P388 leukemia ip, median survival T/C
Assay: NCI In Vivo Anticancer Drug Screen. Data for tumor model P388 Leukemia (intraperitoneal) in B6D2F1 (BDF1) mice
Conditions: T/C endpoint: median survival time, higher T/C = longer survival
Outline: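 Vehicle-dosed animals serve as the reference; survival of compound-dosed, tumour-implanted mice is divided by it.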

[1] = dose: 400.0 mg/kg/injection, schedule: Q01DX001 (ip), vehicle: Klucel (hydroxypropylcellulose) (HPC)
[2] = dose: 100.0 mg/kg/injection, schedule: Q01DX009 (ip), vehicle: saline
[3] = dose: 200.0 mg/kg/injection, schedule: Q01DX001 (ip), vehicle: Klucel (hydroxypropylcellulose) (HPC)
[4] = dose: 200.0 mg/kg/injection, schedule: Q04DX003 (ip), vehicle: Klucel (hydroxypropylcellulose) (HPC)
[5] = dose: 400.0 mg/kg/injection, schedule: Q04DX003 (ip), vehicle: Klucel (hydroxypropylcellulose) (HPC)
[6] = dose: 100.0 mg/kg/injection, schedule: Q04DX003 (ip), vehicle: saline
[7] = dose: 100.0 mg/kg/injection, schedule: Q01DX009 (ip), vehicle: saline with Tween-80
[8] = dose: 50.0 mg/kg/injection, schedule: Q01DX009 (ip), vehicle: Klucel (hydroxypropylcellulose) (HPC)
[9] = dose: 25.0 mg/kg/injection, schedule: Q01DX009 (ip), vehicle: saline with Tween-80
[10] = dose: 400.0 mg/kg/injection, schedule: Q01DX009 (ip), vehicle: saline with Tween-80
[11] = dose: 200.0 mg/kg/injection, schedule: Q01DX009 (ip), vehicle: saline with Tween-80

Cc1cc(=O)[nH]c2c1ccc1[nH]c(=O)cc(C)c12
survivor count [1]: 6 of 6

C[C@]12CCC(=O)C=C1CC[C@@H]1[C@@H]2CC[C@@]2(C)[C@H]1CC[C@]2(C)O
survivor count (dose: 400.0 mg/kg/injection, schedule: Q01DX009 (sc), vehicle: steroid suspending solution): 3 of 6

CCOC(=O)/C(=C\c1ccccc1)O/C(=C/c1ccccc1)C(=O)OCC
survivor count (dose: 200.0 mg/kg/injection, schedule: Q04DX002 (ip), vehicle: saline with Tween-80): 6 of 6

N#CN1CC(C(=O)N2CCCCC2)C=C2c3cccc4[nH]cc(c34)CC21 (stereo not given)
survivor count (dose: 25.0 mg/kg/injection, schedule: Q01DX009 (ip), vehicle: saline): 5 of 6
survivor count [2]: 5 of 6

CC(=O)[C@H]1[C@H](C)C[C@H]2[C@@H]3CCC4=CC(=O)CC[C@]4(C)[C@@]3(F)[C@@H](O)C[C@@]21C
T/C (dose: 132.0 mg/kg/injection, schedule: Q04DX003 (ip), vehicle: saline): 131 % of control
T/C (dose: 200.0 mg/kg/injection, schedule: Q04DX003 (ip), vehicle: alcohol): 125 % of control

C=CCOCCC(=O)OCC=C
survivor count (dose: 100.0 mg/kg/injection, schedule: Q01DX001 (ip), vehicle: Klucel (hydroxypropylcellulose) (HPC)): 6 of 6
survivor count [3]: 6 of 6
survivor count [4]: 5 of 6
survivor count [1]: 5 of 6
survivor count [5]: 5 of 6

O=C1C=CC(=O)c2cc(Cl)c(Cl)cc21
T/C (dose: 6.25 mg/kg/injection, schedule: Q01DX009 (ip), vehicle: saline with Tween-80): 127 % of control

CN(C)CNc1ncnc2onc(-c3ccccc3)c12
survivor count (dose: 200.0 mg/kg/injection, schedule: Q01DX009 (ip), vehicle: other): 3 of 6

COC(=O)C1=COC(C)C(C=O)C1CC(=O)O (stereo not given)
T/C (dose: 14.5 mg/kg/injection, schedule: Q04DX003 (ip), vehicle: saline): 131 % of control
T/C (dose: 22.0 mg/kg/injection, schedule: Q04DX003 (ip), vehicle: saline): 133 % of control
T/C (dose: 25.0 mg/kg/injection, schedule: Q04DX003 (ip), vehicle: saline): 138 % of control
T/C (dose: 33.0 mg/kg/injection, schedule: Q04DX003 (ip), vehicle: saline): 131 % of control
T/C (dose: 50.0 mg/kg/injection, schedule: Q04DX003 (ip), vehicle: saline): 125 % of control
T/C [6]: 138 % of control

O=C(c1cc2c3ccccc3ccc2c2ccccc12)C(Br)Br
T/C (dose: 50.0 mg/kg/injection, schedule: Q01DX009 (ip), vehicle: saline with Tween-80): 127 % of control
T/C [7]: 127 % of control

CCCOP(=S)(N1CC1)N1CC1
T/C [8]: 135 % of control
T/C (dose: 50.0 mg/kg/injection, schedule: Q01DX009 (ip), vehicle: other): 140 % of control
T/C (dose: 100.0 mg/kg/injection, schedule: Q04DX003 (ip), vehicle: Klucel (hydroxypropylcellulose) (HPC)): 133 % of control
survivor count (dose: 200.0 mg/kg/injection, schedule: Q01DX009 (ip), vehicle: Klucel (hydroxypropylcellulose) (HPC)): 1 of 6
survivor count [5]: 1 of 6

N#CSCc1ccc(CSC#N)c(Cl)c1
T/C (dose: 3.13 mg/kg/injection, schedule: Q01DX009 (ip), vehicle: saline with Tween-80): 136 % of control

COC(=O)/C(=C1/OC(=O)C(c2ccccc2)=C1O)c1ccccc1
T/C [9]: 127 % of control
survivor count [7]: 0 of 3

O=C1CN(c2ccccc2)CC(=O)N2Cc3ccccc3CN12
survivor count (dose: 50.0 mg/kg/injection, schedule: Q01DX005 (ip), vehicle: saline with Tween-80): 5 of 5
survivor count (dose: 200.0 mg/kg/injection, schedule: Q01DX005 (ip), vehicle: saline with Tween-80): 5 of 5

O=C(Nc1cc(C(F)(F)F)cc(C(F)(F)F)c1)Nc1c(Oc2ccc(Cl)cc2Cl)ccc(Cl)c1S(=O)(=O)O
survivor count (dose: 200.0 mg/kg/injection, schedule: Q04DX003 (ip), vehicle: saline sonified): 6 of 6

CSc1nc(N)nc2c1ncn2C1CC(O)C(CO)O1 (stereo not given)
survivor count (dose: 200.0 mg/kg/injection, schedule: Q01DX009 (ip), vehicle: saline): 6 of 6

C/C=C(/Cl)c1c(C)cc(C)cc1C
survivor count [10]: 6 of 6

CC(=O)OCc1cc(=O)n(C)c2c3c4c(cc12)c(C)cc(=O)n4CO3
T/C [3]: 133 % of control
T/C [1]: 133 % of control

O.Oc1ccccc1C=NCCC[N-]CCCN=Cc1ccccc1O.[Co]
survivor count [7]: 0 of 6
survivor count [11]: 3 of 6

c1ccc(CN2C3Oc4ccccc4C2Oc2ccccc23)cc1
survivor count [7]: 6 of 6

Cc1ncc([N+](=O)[O-])n1CCSC#N
survivor count (dose: 100.0 mg/kg/injection, schedule: Q04DX003 (ip), vehicle: saline with Tween-80): 0 of 6
survivor count (dose: 200.0 mg/kg/injection, schedule: Q04DX003 (ip), vehicle: saline with Tween-80): 0 of 6
survivor count (dose: 400.0 mg/kg/injection, schedule: Q04DX003 (ip), vehicle: saline with Tween-80): 0 of 6

CC(C)[N+](C)(C)CC(O)COc1cccc2ccccc12 (stereo not given)
survivor count [2]: 0 of 6

C#CCCC#C
T/C [7]: 134 % of control

COc1ccc(N2C(=O)CC(Sc3ccccc3N)C2=O)cc1 (stereo not given)
survivor count [3]: 6 of 6

Cc1ncc(CO)c(C2NOCc3ccc(Cl)cc32)c1O (stereo not given)
survivor count [8]: 1 of 6

O=C(Nc1ccc(C2=NCCCN2)cc1)Nc1cccc(C(=O)Nc2ccc(C3=NCCCN3)cc2)c1
survivor count (dose: 37.5 mg/kg/injection, schedule: Q01DX009 (ip), vehicle: saline with Tween-80): 5 of 6

COc1cccc(N2C(=O)CSC2=S)c1
survivor count [10]: 3 of 6

CC1=CC(=O)OC2(C1)CC1CCC2CN1C (stereo not given)
survivor count [6]: 2 of 6

CN=C(N)Nc1ccc(C(=O)Oc2ccc([N+](=O)[O-])cc2)cc1
survivor count (dose: 100.0 mg/kg/injection, schedule: Q01DX009 (ip), vehicle: water): 5 of 6
survivor count (dose: 400.0 mg/kg/injection, schedule: Q04DX003 (ip), vehicle: water): 4 of 6

N#CCCN(C(=S)Nc1ccc(Cl)c(Cl)c1)C1CCCCC1
T/C [10]: 144 % of control

[O-][Cl+3]([O-])([O-])O.[O-][n+]1c2ccccc2nc2ccccc21.[Zn+2]
T/C [7]: 129 % of control
survivor count [11]: 1 of 6

O=P(NC12CC3CC(CC(C3)C1)C2)(N1CC1)N1CC1
T/C (dose: 4.4 mg/kg/injection, schedule: Q01DX009 (ip), vehicle: Klucel (hydroxypropylcellulose) (HPC)): 145 % of control
survivor count (dose: 15.0 mg/kg/injection, schedule: Q01DX009 (ip), vehicle: Klucel (hydroxypropylcellulose) (HPC)): 6 of 6

CCCCCCCCCCCC[n+]1cccc2ccccc21
T/C (dose: 0.15 mg/kg/injection, schedule: Q01DX009 (ip), vehicle: saline): 145 % of control
survivor count (dose: 1.4 mg/kg/injection, schedule: Q01DX009 (ip), vehicle: saline): 3 of 6

CCOc1nc(SCC)ncc1C
survivor count (dose: 400.0 mg/kg/injection, schedule: Q01DX009 (ip), vehicle: water): 0 of 6

COC(=O)CN(c1c(C)cc(C)c(N)c1C)S(=O)(=O)c1ccccc1
survivor count [3]: 6 of 6

COc1ccc2c(c1OC(C)=O)-c1cc(OC(C)=O)cc3c1C(C2)N(C(=O)CBr)CC3 (stereo not given)
T/C [9]: 126 % of control
survivor count [7]: 3 of 6

NC(=O)OCCI
T/C [4]: 127 % of control
survivor count (dose: 300.0 mg/kg/injection, schedule: Q04DX003 (ip), vehicle: Klucel (hydroxypropylcellulose) (HPC)): 4 of 6
